Measurements from the supplement of paper PMC10849652.
The other results are listed elsewhere or left out.

Amino acid sequences for entries named in this document (tags omitted). A change or cut given only in a name is not applied to a line headed by its entry.
UniProt Q7Z2H8: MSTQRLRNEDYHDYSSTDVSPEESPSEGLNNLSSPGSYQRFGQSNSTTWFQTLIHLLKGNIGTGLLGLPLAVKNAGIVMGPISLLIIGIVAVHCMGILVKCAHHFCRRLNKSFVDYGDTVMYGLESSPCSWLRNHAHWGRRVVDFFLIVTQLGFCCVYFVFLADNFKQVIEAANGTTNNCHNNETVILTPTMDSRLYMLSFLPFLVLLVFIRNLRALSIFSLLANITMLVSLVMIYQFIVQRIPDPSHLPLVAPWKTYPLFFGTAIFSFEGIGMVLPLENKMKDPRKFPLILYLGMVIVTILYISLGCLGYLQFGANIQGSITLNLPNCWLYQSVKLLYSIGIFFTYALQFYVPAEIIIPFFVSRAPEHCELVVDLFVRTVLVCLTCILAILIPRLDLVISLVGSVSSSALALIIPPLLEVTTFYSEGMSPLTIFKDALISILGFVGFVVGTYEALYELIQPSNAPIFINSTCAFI
UniProt Q8IVJ1: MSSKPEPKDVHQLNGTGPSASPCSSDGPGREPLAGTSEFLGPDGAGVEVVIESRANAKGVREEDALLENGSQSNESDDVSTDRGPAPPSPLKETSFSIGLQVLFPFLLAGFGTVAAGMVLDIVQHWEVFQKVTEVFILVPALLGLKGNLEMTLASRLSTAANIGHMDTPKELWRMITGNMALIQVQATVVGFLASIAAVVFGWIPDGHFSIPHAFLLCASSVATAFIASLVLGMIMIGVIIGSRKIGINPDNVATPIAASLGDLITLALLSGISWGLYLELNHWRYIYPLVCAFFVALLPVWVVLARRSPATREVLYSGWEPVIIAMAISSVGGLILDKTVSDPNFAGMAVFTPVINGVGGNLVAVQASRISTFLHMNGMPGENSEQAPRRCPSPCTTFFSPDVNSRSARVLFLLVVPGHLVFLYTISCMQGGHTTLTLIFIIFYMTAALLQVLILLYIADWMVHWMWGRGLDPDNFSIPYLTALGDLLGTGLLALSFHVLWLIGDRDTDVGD
UniProt Q9NRA2: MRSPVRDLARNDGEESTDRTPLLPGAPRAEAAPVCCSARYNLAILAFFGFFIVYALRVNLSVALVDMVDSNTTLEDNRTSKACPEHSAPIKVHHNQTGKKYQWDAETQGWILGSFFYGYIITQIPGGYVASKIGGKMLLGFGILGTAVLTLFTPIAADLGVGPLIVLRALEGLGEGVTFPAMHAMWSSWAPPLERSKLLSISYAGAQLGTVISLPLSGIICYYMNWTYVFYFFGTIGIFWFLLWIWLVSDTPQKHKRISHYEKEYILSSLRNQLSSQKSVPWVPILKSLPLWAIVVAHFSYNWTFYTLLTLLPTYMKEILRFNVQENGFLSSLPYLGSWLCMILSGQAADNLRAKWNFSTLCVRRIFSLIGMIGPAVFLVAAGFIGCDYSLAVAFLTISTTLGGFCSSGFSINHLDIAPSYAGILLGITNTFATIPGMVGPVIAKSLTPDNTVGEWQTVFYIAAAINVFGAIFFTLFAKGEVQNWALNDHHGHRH
UniProt Q2M3R5: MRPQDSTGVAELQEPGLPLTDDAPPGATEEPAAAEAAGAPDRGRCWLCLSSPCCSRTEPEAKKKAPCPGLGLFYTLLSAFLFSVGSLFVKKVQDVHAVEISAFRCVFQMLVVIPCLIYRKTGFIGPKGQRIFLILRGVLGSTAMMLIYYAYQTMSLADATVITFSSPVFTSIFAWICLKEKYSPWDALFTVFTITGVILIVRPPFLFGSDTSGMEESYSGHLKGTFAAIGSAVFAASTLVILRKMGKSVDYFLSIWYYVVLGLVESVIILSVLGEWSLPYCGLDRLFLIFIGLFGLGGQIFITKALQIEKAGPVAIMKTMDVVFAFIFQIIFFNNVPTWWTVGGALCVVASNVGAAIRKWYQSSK
UniProt Q96NT5: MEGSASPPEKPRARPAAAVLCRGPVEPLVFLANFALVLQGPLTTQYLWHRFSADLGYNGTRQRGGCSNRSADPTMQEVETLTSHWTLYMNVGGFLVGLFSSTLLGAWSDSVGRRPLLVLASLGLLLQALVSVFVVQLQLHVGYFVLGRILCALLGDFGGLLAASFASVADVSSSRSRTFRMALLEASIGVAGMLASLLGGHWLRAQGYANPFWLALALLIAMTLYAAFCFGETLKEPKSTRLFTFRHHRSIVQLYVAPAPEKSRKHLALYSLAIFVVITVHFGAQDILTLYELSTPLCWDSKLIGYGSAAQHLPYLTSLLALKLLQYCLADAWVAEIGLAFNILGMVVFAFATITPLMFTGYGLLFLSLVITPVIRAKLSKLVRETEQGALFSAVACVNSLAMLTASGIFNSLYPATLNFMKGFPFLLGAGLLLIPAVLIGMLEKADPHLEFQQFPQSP
UniProt Q8NBI5: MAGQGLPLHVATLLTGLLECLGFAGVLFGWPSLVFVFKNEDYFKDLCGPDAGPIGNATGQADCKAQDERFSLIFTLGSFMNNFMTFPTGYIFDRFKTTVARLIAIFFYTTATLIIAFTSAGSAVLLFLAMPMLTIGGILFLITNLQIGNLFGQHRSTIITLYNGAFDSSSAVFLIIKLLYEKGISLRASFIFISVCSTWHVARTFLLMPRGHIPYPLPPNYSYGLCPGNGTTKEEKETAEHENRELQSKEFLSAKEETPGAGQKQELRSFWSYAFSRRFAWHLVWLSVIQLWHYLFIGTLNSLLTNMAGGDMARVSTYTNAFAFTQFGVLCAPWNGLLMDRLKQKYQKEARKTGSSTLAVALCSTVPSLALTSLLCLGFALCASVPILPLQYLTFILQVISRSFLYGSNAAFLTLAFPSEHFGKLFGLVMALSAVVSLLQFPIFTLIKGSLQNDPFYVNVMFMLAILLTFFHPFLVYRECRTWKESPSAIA
UniProt P78381: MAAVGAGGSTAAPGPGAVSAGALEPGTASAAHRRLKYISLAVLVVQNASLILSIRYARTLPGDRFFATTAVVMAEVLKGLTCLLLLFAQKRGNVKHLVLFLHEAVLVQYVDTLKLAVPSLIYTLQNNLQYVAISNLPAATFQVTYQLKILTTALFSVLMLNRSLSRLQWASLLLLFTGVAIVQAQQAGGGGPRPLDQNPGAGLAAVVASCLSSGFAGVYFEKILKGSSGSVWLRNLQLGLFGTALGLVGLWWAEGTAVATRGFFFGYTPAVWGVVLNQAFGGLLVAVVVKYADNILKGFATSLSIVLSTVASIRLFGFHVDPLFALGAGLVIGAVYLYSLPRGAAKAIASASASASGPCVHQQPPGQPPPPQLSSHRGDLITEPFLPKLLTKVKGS
UniProt Q8WV83: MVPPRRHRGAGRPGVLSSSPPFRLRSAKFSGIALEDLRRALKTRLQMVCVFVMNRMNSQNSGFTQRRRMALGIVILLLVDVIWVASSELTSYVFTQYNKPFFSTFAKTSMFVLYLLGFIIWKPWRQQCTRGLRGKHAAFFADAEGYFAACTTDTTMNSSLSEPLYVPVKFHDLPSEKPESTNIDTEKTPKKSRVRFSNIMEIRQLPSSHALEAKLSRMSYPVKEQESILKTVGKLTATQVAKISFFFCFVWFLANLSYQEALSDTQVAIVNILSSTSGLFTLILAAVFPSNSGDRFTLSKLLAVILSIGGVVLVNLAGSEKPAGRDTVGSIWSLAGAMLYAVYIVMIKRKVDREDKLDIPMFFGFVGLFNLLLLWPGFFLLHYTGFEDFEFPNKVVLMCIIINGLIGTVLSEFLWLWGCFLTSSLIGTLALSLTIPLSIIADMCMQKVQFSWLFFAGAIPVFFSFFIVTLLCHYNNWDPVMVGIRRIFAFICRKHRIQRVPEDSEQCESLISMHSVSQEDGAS
UniProt Q9H015: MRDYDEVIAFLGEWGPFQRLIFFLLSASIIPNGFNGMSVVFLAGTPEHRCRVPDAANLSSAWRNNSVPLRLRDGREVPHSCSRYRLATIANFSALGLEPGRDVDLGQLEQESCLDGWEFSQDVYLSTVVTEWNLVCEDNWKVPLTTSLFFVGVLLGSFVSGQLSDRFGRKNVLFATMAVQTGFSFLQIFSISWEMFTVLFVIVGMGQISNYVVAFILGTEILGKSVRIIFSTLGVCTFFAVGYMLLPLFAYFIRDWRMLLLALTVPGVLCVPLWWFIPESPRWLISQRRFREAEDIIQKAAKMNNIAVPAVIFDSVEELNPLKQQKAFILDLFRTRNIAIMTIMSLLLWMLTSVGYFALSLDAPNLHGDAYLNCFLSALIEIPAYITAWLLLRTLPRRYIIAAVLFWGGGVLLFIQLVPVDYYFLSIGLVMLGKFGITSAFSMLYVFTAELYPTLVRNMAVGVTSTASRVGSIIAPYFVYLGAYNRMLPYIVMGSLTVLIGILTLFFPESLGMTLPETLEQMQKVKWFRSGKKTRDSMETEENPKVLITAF
UniProt Q96H78: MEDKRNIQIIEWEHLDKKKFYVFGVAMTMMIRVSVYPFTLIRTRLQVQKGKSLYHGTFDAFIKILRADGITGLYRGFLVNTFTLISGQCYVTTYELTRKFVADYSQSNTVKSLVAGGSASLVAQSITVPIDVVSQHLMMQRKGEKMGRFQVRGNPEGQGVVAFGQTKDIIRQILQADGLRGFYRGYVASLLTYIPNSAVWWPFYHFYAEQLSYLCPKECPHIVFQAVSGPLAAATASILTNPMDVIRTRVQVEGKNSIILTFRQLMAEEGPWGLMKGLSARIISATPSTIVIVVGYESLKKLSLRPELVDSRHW
UniProt P0CK96: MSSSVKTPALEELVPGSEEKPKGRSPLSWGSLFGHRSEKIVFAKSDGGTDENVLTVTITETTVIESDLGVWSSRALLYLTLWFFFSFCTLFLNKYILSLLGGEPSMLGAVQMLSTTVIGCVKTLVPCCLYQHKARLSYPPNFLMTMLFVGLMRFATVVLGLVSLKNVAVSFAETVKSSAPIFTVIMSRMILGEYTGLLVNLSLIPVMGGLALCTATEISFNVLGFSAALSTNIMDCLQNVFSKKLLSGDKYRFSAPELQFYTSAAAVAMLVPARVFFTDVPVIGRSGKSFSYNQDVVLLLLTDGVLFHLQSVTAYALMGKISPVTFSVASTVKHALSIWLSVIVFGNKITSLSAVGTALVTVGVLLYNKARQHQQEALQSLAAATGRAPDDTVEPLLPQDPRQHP
UniProt Q8N2U9: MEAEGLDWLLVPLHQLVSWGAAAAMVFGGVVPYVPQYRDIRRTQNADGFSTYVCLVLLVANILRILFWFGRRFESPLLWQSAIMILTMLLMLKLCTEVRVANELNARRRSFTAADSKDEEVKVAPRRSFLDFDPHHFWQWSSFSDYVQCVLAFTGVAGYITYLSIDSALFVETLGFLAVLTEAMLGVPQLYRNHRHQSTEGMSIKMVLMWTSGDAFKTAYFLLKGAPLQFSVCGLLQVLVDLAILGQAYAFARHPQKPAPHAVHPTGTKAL
UniProt Q6YBV0: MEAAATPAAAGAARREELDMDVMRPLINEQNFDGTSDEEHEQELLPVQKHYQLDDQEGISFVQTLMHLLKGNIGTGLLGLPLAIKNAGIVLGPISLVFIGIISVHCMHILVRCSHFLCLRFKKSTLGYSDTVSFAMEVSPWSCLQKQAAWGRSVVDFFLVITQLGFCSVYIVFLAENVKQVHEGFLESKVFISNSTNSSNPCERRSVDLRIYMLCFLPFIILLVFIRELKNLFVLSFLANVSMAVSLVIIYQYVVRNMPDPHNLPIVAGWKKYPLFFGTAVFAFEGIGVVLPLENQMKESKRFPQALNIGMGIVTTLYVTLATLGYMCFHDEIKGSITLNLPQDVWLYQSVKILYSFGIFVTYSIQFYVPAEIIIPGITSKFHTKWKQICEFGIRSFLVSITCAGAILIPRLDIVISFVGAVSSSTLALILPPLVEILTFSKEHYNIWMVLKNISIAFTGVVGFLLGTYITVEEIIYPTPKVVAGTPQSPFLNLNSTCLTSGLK
UniProt A1A5C7: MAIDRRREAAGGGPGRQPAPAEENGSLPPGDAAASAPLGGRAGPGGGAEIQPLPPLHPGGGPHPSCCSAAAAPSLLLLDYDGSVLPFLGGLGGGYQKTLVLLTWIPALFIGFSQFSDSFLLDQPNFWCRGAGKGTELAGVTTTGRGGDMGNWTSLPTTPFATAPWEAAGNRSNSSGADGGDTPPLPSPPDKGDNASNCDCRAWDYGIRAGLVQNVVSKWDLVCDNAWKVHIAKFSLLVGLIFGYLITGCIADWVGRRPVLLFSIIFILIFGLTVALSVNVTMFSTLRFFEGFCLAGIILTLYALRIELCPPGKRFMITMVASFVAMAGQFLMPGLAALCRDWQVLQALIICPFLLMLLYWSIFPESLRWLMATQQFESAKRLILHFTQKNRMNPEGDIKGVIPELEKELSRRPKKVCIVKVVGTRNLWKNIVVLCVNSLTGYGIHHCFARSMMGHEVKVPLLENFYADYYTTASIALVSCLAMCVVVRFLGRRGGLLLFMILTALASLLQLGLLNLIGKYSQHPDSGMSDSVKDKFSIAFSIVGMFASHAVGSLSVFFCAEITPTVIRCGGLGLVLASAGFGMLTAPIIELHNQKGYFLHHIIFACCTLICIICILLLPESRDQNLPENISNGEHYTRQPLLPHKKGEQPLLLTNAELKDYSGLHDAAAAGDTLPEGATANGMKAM
UniProt Q6P1K1: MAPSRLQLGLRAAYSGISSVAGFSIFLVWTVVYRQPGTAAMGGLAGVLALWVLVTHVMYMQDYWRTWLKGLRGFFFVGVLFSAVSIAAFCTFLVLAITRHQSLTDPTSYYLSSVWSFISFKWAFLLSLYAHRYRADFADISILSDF

Legend:
Assay in all cases: log2 fold change, soluble protein after heating vs DMSO (PISA); higher = thermal stabilisation; K562 cells, 10 uM, 30 min; active = over 0.2 and 3.5 SD of the protein, either way, in both replicates (recomputed)
[1] = compound: C1=CC2=NC=CN=C2C=C1/C=C/3\C(=O)NC(=O)S3
Procedure, shortened: (§1)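 Thermal stability values are relative to control samples and come from duplicates. They are expressed as log2 fold changes. For measurement, K562 cells (2×10^6 cells/mL) received 10 μM compound for 30 min, and aliquots were heated for 3 min over 48°C-58°C, pooled, and extracted at 4°C in PBS with 0.5% NP-40. Soluble protein, the supernatant after 21,000xg for 90 min, was quantified by TMTpro 16plex LC-MS/MS with equalised channel sums.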

[2] = compound: C#Cc1cccc(Nc2ncnc3cc(OCCOC)c(OCCOC)cc23)c1 [erlotinib]
Procedure, shortened: as §1

[3] = compound: C/C(=N\NC(=O)C1=CC(=CC=C1)S(=O)(=O)N2CCOCC2)/C3=C(C=CC(=C3)Cl)O
Procedure, shortened: as §1

[4] = compound: C1=CC(=CC=C1C2=NC3=C(N2)C=C(C=C3)C(=O)N)OC4=CC=C(C=C4)Cl
Procedure, shortened: as §1

[5] = compound: C1=CC2=C(C=CC(=C2)/C=C\3/C(=O)NC(=NCC4=CC=CS4)S3)N=C1
Procedure, shortened: as §1

[6] = compound: C1=CC=C(C=C1)C2=NC(=C(N2)C3=CC=NC=C3)C4=CC(=C(C=C4)Cl)O
Procedure, shortened: as §1

[7] = compound: C1=CC=C2C(=C1)C3=NNC4=CC=CC(=C43)C2=O
Procedure, shortened: as §1

[8] = compound: C1=CC(=C(C=C1Cl)C2=NC3=NC=CN=C3C(=N2)NC4=CC=NC=C4)F
Procedure, shortened: as §1

[9] = compound: C1CCN(C1)C(=O)NC2=CC=CC(=C2)NC3=NC=C(C(=N3)NCCC4=CN=CN4)Br
Procedure, shortened: as §1

[10] = compound: C1CN(CCC1(CC2=CC=C(C=C2)Cl)N)C3=NC=NC4=C3C=CN4
Procedure, shortened: as §1

Measured: log2 fold change

SLC26A11 (UniProt I3L0N9)
inactive: [1] 0.051

SLC36A1 (UniProt E5RG64)
inactive: [1] -0.514

SLC25A30 (UniProt Q5SVS4)
inactive: [2] -0.026 | [3] -0.028 | [4] 0.094 | [5] 0.026 | [6] -0.064 | [7] -0.03

SLC27A6 (UniProt Q9Y2P4)
inactive: [2] 0.042 | [8] -0.296 | [4] -0.045 | [1] -0.03 | [6] 0.107 | [9] -0.053 | [10] 0

SLC23A2 (UniProt Q9UGH3)
inactive: [2] 0.025 | [4] -0.065 | [1] 0.643 | [9] -0.044 | [10] 0.05

SLC35B1 isoform 2 (UniProt P78383)
inactive: [2] -0.024 | [8] -0.008 | [4] 0.127 | [1] 0.018 | [6] 0.085 | [9] -0.021 | [10] 0.271

SLC4A3 isoform 3 (UniProt P48751)
inactive: [3] 0.053 | [5] 0.236 | [1] 0.066 | [7] 0.107

SLC36A1 (UniProt Q7Z2H8)
inactive: [2] 0.104 | [4] 0.1

SLC41A1 (UniProt Q8IVJ1)
inactive: [8] 0.212 | [6] -0.207

SLC17A5 (UniProt Q9NRA2)
inactive: [2] 0.035 | [3] 0.033 | [4] -0.015 | [5] 0.028 | [6] 0.046 | [7] -0.087

SLC35G1 (UniProt Q2M3R5)
inactive: [3] -0.085 | [5] 0.129 | [7] 0.049 | [9] -0.131 | [10] 0.071

SLC10A3 (UniProt P09131)
inactive: [2] 0.071 | [8] -0.017 | [4] -0.063 | [1] 0.034 | [9] -0.096 | [10] 0.085

SLC22A5 isoform 3 (UniProt O76082)
inactive: [8] -0.01 | [1] 0.071

SLC6A9 (UniProt P48067)
inactive: [2] 0.03 | [3] 0.053 | [4] -0.048 | [5] 0.029 | [1] 0.181 | [6] 0.005 | [7] -0.082 | [9] -0.104 | [10] 0.115

SLC46A1 (UniProt Q96NT5)
inactive: [2] 0.094 | [3] -0.017 | [4] -0.054 | [5] -0.042 | [7] 0 | [9] -0.193 | [10] 0.091

SLC43A3 (UniProt Q8NBI5)
inactive: [8] -0.07

SLC25A28 (UniProt Q96A46)
inactive: [1] -0.04

SLC25A23 isoform 3 (UniProt Q9BV35)
inactive: [2] 0.059 | [3] 0.064 | [4] -0.111 | [5] -0.049 | [1] 0.127 | [6] -0.074 | [7] 0.062 | [9] -0.049 | [10] 0.125

SLC35A2 isoform 4 (UniProt P78381)
inactive: [3] 0.107 | [8] -0.067 | [5] 0.133 | [1] 0.024 | [6] 0.049 | [7] -0.043 | [9] 0.007 | [10] 0.018

SLC35F5 (UniProt Q8WV83)
inactive: [8] 0.008 | [1] 0.222

SLC25A29 (UniProt Q8N8R3)
inactive: [2] -0.07 | [4] 0.374 | [6] 0.09 | [9] -0.105 | [10] 0.139

SLC22A4 (UniProt Q9H015)
inactive: [3] 0.056 | [8] 0.009 | [5] 0.034 | [6] 0.036 | [7] -0.034 | [9] -0.079 | [10] 0.041

SLC2A4 (UniProt P14672)
inactive: [2] -0.024 | [3] 0.014 | [4] 0.047 | [5] 0.035 | [1] 0.032 | [6] -0.219 | [7] 0.097 | [9] -0.037 | [10] -0.021

SLC22A18 (UniProt Q96BI1)
inactive: [2] -0.045 | [8] 0.017 | [4] -0.02 | [1] 0.016 | [6] -0.026 | [9] 0.007 | [10] 0.012

SLC25A44 (UniProt Q96H78)
inactive: [3] -0.027 | [8] 0.051 | [5] 0.033 | [1] -0.036 | [7] -0.05 | [9] 0 | [10] 0.1

SLC35E2B (UniProt P0CK96)
inactive: [1] 0.05 | [6] 0.124

SLC66A2 (UniProt Q8N2U9)
inactive: [2] -0.085 | [8] -0.04 | [4] 0.102 | [1] 0.087

SLC36A4 (UniProt Q6YBV0)
inactive: [2] 0.034 | [8] 0.274 | [4] 0.054 | [1] -0.023 | [6] -0.14

SLC22A23 (UniProt A1A5C7)
inactive: [2] 0.014 | [4] 0.045 | [6] -0.033

SLC48A1 (UniProt Q6P1K1)
inactive: [2] -0.07 | [4] 0.043 | [1] 0.001 | [6] -0.104

SLC66A3 (UniProt Q8N755)
inactive: [2] 0.12 | [8] 0.166 | [4] -0.015

Retrieved one by one from the list above (2):
SLC66A2 (UniProt Q8N2U9)
inactive: [2] -0.085 | [8] -0.04 | [4] 0.102 | [1] 0.087

SLC66A3 (UniProt Q8N755)
inactive: [2] 0.12 | [8] 0.166 | [4] -0.015

Further results follow.

SLC35D1 (UniProt Q9NTN3)
inactive: [3] 0.046 | [5] 0.03 | [7] 0.049 | [9] -0.085 | [10] 0.087

SLC39A9 (UniProt Q9NUM3)
inactive: [9] -0.521 | [10] -0.099

SLC25A35 (UniProt Q3KQZ1)
inactive: [2] 0.25 | [3] -0.003 | [4] 0.052 | [5] 0.041 | [7] 0.034 | [9] 0.006 | [10] -0.058
